# pIC50: −log10 of the molar value. Structures were worked out from names or drawings and are uncertain.
# Chains of the proteins cited; added tags and fusions are not shown. Residues count along the entry.
# UniProt P47871, 26-477 limits assumed: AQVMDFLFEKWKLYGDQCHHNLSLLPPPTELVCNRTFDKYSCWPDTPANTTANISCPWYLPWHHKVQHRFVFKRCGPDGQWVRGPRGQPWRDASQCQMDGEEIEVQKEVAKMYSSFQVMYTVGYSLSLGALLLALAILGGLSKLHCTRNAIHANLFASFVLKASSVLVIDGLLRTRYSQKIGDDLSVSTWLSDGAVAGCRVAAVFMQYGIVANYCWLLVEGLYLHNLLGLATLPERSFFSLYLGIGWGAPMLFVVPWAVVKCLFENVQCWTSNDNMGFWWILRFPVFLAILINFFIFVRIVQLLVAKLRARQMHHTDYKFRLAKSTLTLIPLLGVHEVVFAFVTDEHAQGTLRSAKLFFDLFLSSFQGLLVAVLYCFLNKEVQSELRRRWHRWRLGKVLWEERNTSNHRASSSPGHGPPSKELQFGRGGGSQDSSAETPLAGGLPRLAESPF
# Target: glucagon receptor (Homo sapiens, UniProt P47871)
# Test: glucagon receptor binding assay (125I-glucagon, CHO-HGR membranes)
# Conditions: 60 min at room temperature
row,Compound,pIC50
1,CCCCCc1c(CNc2cccc(OC)c2)nc(C(C)C)c(CO)c1-c1ccc(F)cc1,5.15
2,"CSc1ccc(SCc2c(C(C)C)cc(C(C)C)c(C(C)O)c2-c2ccc(F)cc2)cc1 (single isomer, unassigned)",6.40
3,CCCC=Cc1c(C(C)C)nc(C(C)C)c(CO)c1-c1ccsc1,4.92
4,CCCCCc1c(C(C)C)nc(C(C)C)c(CO)c1-c1ccc(F)cc1F,4.98
5,CCCCCc1c(C(O)c2ccccc2)nc(C(C)C)c(CO)c1-c1ccc(F)cc1 (centres unmarked),4.72
6,CCCCCc1c(C(C)(C)OCC)nc(C(C)C)c(CO)c1-c1ccc(F)cc1,5.89
7,CCCCCc1c(COCc2ccccc2)nc(C(C)C)c(CO)c1-c1ccc(F)cc1,5.74
8,CCCCCc1c(C(C)(C)OC)nc(C(C)C)c(CO)c1-c1ccc(F)cc1,5.89

# Source: US6218431A, “Substituted biphenyls” (Bayer Corporation, priority 1997, dated 2001)
